Construct, isoform or probe ends are uncertain for at least one entry. A weaker result is weaker than the reference pair of the same experiment.
Biological target: UAP56 (UniProt Q13838)
Experiment: pull-down (NeutrAvidin beads, RNA unclamping assay)
Conditions: releases UAP56 from RNA, 2.2 or 0.44 uM, RNA unclamping: 20 mM HEPES pH 7.9, 40 mM KCl, 2 mM MgCl2, 5% glycerol, 0.1% Igepal CA-630, 1 mM ATP at loading, room temperature, 500 mM KCl wash, recombinant protein, residues 1-428, protein details: 10xHis-3C (N-term)

UUUUUUUUUUUUUUU [biotinylated 15U RNA]: binds more weakly (LENG8-PSM (P2) challenge); binds more weakly (SAC3D1-PSM (P5) challenge).
